The target of assay [1] is FLAG-USP7 (UniProt Q93009). Nature of the assay: affinity purification with mass spectrometry; whole-cell extracts of A375 cells with or without Dox-inducible expression of FLAG-USP7; anti-FLAG purification, silver staining, mass spectrometry.
For assay [2], the target named is FLAG-EZH2 (UniProt Q15910). Nature of the assay: affinity purification with mass spectrometry; whole-cell extracts of A375 cells stably expressing FLAG-EZH2 on anti-FLAG M2 affinity gel; washed with cold PBS plus 0.2% Nonidet P-40; eluted with FLAG peptide; silver-stained bands analysed by LC-MS/MS.

Sequences of proteins named here, by UniProt entry; tags and fusion partners are left off. A change or cut given only in a name is not applied to a line headed by its entry. A line that says so, or that is headed by a name, gives the form on record, which may keep a tag or linker.
UniProt Q93009: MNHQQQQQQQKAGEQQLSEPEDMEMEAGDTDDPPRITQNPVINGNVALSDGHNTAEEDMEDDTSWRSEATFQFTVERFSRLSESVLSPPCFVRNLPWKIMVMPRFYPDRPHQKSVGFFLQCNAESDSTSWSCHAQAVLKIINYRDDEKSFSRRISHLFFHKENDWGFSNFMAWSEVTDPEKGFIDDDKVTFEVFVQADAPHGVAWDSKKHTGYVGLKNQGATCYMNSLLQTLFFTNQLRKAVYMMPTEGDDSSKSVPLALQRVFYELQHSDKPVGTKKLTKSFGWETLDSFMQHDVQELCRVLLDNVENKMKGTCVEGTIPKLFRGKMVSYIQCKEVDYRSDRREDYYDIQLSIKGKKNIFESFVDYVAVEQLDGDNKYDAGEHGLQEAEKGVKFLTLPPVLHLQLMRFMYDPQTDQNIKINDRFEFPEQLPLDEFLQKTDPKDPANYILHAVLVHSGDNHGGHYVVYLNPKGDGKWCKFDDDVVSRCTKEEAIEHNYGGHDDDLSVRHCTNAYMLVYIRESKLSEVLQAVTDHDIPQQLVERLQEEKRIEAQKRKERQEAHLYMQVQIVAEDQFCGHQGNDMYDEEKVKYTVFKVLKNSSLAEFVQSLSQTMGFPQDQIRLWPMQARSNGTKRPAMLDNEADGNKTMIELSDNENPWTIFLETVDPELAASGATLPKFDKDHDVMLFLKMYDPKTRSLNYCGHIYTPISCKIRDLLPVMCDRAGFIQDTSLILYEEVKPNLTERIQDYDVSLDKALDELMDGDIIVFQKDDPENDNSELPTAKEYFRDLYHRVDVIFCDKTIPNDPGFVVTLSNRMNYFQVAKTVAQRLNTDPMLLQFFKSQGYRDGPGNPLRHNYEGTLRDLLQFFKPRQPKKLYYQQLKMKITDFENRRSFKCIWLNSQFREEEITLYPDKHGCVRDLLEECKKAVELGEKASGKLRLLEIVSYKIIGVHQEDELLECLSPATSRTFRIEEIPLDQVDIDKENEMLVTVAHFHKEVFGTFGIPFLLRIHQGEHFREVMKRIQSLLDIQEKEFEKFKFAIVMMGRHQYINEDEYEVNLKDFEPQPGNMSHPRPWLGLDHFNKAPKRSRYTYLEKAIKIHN
FLAG-EZH2 (Q15910, form named): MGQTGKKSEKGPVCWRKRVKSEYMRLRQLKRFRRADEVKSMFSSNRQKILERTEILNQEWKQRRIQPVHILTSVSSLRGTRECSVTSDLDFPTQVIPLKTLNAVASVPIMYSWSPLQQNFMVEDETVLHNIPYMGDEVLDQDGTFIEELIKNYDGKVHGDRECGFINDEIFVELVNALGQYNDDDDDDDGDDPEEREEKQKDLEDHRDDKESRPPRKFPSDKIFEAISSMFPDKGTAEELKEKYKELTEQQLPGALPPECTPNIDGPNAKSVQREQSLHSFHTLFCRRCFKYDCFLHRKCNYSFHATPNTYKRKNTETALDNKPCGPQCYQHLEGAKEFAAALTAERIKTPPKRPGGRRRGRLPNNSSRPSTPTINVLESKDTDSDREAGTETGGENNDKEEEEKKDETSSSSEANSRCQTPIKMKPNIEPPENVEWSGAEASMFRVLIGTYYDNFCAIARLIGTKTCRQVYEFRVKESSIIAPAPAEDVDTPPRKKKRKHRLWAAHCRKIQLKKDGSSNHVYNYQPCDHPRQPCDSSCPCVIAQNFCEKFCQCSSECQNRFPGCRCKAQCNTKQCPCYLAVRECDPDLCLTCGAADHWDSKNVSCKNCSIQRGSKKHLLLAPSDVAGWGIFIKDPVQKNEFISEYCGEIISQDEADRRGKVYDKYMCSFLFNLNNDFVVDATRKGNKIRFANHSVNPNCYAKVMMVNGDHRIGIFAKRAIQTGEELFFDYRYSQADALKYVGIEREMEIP
UniProt Q06587: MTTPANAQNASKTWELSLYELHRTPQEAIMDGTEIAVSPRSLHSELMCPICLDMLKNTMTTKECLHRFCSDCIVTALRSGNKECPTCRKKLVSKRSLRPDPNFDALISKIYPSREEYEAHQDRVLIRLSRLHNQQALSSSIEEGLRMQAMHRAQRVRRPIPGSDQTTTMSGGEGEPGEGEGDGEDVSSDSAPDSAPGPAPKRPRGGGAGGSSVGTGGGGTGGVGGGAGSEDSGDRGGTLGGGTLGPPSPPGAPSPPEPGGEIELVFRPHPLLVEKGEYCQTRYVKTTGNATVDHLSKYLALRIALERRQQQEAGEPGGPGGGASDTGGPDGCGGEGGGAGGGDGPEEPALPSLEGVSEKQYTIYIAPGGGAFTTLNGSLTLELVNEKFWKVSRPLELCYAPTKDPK
UniProt Q01082: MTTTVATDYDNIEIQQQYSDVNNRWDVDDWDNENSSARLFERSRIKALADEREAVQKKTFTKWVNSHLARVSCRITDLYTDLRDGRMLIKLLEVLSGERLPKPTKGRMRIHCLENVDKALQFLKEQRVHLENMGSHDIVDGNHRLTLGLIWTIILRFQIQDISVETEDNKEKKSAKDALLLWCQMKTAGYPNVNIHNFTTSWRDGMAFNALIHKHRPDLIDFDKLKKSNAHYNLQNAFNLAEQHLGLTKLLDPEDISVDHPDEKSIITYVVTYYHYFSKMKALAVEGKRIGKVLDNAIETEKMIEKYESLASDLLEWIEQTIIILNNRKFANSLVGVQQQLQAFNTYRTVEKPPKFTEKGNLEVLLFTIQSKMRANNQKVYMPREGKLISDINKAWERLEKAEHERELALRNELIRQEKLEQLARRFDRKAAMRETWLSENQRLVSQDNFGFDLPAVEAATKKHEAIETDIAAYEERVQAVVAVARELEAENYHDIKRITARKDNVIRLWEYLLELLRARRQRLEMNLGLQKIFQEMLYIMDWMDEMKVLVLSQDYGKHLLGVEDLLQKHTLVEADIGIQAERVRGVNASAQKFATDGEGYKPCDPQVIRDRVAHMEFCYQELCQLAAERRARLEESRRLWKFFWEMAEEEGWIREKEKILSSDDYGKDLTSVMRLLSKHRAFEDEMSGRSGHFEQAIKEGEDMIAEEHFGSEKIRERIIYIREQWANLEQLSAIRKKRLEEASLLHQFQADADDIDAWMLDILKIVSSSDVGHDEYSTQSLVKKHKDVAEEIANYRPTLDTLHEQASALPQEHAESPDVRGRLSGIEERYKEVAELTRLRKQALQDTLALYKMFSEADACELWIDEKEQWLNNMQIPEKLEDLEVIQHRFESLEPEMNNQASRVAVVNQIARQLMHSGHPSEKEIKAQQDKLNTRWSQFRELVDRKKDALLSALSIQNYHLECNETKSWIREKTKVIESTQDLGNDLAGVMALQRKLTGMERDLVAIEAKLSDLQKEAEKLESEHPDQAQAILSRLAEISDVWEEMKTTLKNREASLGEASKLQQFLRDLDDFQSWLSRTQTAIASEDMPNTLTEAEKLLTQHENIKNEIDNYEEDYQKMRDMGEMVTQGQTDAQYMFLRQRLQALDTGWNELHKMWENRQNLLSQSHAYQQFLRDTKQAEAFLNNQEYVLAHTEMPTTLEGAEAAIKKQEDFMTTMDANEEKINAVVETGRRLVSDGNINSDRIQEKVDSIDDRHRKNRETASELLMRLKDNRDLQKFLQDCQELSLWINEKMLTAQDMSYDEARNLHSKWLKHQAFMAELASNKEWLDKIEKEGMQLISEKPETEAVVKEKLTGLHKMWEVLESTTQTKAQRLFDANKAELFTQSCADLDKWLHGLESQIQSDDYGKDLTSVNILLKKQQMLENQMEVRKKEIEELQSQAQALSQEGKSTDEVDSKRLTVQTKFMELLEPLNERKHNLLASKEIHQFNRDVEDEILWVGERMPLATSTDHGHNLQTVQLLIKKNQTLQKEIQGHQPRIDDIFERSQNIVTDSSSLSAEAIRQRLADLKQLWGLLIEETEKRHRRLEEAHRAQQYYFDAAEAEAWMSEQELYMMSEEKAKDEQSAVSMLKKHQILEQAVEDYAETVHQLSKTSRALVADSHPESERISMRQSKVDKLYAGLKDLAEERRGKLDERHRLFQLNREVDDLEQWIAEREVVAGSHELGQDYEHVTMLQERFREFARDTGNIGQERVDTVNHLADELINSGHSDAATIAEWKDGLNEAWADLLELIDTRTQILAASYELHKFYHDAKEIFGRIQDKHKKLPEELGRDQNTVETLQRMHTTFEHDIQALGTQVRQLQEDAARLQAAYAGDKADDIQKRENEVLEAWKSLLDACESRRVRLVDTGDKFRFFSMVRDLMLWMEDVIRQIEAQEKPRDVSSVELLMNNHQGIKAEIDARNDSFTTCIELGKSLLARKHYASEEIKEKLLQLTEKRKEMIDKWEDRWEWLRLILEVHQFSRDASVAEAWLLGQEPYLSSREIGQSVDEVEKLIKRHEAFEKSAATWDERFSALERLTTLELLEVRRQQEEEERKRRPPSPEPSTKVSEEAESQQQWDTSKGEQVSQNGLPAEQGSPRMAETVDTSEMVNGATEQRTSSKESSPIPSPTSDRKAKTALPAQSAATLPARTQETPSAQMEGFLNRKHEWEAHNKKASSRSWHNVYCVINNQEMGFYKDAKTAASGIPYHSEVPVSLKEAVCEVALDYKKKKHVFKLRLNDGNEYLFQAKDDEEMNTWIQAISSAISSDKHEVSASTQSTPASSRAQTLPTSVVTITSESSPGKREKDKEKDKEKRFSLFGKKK

No constants are given. Whether binding was seen depends on the method and setting. In cells and extracts the contact can be indirect. Here binding means that the protein was enriched with, or labelled near, the bait; the list need not be complete.

For RING1A (from UniProt Q06587 1-406), the binding entry in assay [1] was “binds”. Take SPTBN1 (from UniProt Q01082 1-2364): the binding entry in assay [2] is “binds”. Take “ubiquitin-specific protease 7 (USP7) (from UniProt Q93009 1-1102) (enzyme)”: the binding result in assay [2] is listed as “binds”.

B1: OGT (protein, UniProt O15294 1-1046)
chain: MASSVGNVADSTEPTKRMLSFQGLAELAHREYQAGDFEAAERHCMQLWRQEPDNTGVLLLLSSIHFQCRRLDRSAHFSTLAIKQNPLLAEAYSNLGNVYKERGQLQEAIEHYRHALRLKPDFIDGYINLAAALVAAGDMEGAVQAYVSALQYNPDLYCVRSDLGNLLKALGRLEEAKACYLKAIETQPNFAVAWSNLGCVFNAQGEIWLAIHHFEKAVTLDPNFLDAYINLGNVLKEARIFDRAVAAYLRALSLSPNHAVVHGNLACVYYEQGLIDLAIDTYRRAIELQPHFPDAYCNLANALKEKGSVAEAEDCYNTALRLCPTHADSLNNLANIKREQGNIEEAVRLYRKALEVFPEFAAAHSNLASVLQQQGKLQEALMHYKEAIRISPTFADAYSNMGNTLKEMQDVQGALQCYTRAIQINPAFADAHSNLASIHKDSGNIPEAIASYRTALKLKPDFPDAYCNLAHCLQIVCDWTDYDERMKKLVSIVADQLEKNRLPSVHPHHSMLYPLSHGFRKAIAERHGNLCLDKINVLHKPPYEHPKDLKLSDGRLRVGYVSSDFGNHPTSHLMQSIPGMHNPDKFEVFCYALSPDDGTNFRVKVMAEANHFIDLSQIPCNGKAADRIHQDGIHILVNMNGYTKGARNELFALRPAPIQAMWLGYPGTSGALFMDYIITDQETSPAEVAEQYSEKLAYMPHTFFIGDHANMFPHLKKKAVIDFKSNGHIYDNRIVLNGIDLKAFLDSLPDVKIVKMKCPDGGDNADSSNTALNMPVIPMNTIAEAVIEMINRGQIQITINGFSISNGLATTQINNKAATGEEVPRTIIVTTRSQYGLPEDAIVYCNFNQLYKIDPSTLQMWANILKRVPNSVLWLLRFPAVGEPNIQQYAQNMGLPQNRIIFSPVAPKEEHVRRGQLADVCLDTPLCNGHTTGMDVLWAGTPMVTMPGETLASRVAASQLTCLGCLELIAKNRQEYEDIAVKLGTDLEYLKKVRGKVWKQRISSPLFNTKQYTMELERLYLQMWEHYAAGNKPDHMIKPVEVTESA
Regarding B1, in assay [2], the binding result was “binds”.
